# From PubChem BioAssay AID2685 (National Center for Advancing Translational Sciences (NCATS), 2010)
# The list shows a part of the results. Further columns of the screen follow, without active or inactive calls. Most of these compounds were active or inconclusive in the main read-out, so they are no random draw. The note in brackets gives the kind of curve behind each potency; many fits are weak.
# Assay: qHTS Assay for Lipid Storage Modulators in Drosophila S3 Cells;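 for cell number change: cells counted by Cell Tracker Red CMTPX staining in the red channel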
# Conditions: BODIPY lipid droplet fluorescence, 18-24 h; for cell number change: measured here: cell count max response, cells fed with added oleic acid
# How it was run: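 Drosophila S3 cells loaded with oleic acid (400 uM, as added) and compounds at several concentrations; lipid droplets imaged by 488-nm laser-scanning cytometry, 500–530 nm intensity and object ratio to cell channel. Percent activity normalized to 20 uM Triacsin C.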
# [1] = measured here: lipid fluorescence (Fed channel) AC50, cells fed with added oleic acid
# [2] = measured here: cell number channel AC50, cells fed with added oleic acid
Structure (SMILES),cell number change,AC50 [1],AC50 [2]
COc1ccc(CNCCCC(=O)Nc2c(Cl)ccc(C)c2Cl)cc1OC,18.8%,"4.11 µM [rising, full curve, poor fit]",–
COC(=O)c1sccc1NC(=O)Nc1ccc(OC)c(OC)c1,-6.49%,"6.51 µM [rising, partial curve, poor fit]",–
NS(=O)(=O)c1ccc(NN=C2CCN(Cc3ccccc3)CC2)c([N+](=O)[O-])c1,4.3%,"1.16 µM [rising, partial curve, poor fit]","0.164 µM [falling, single point]"
CCOc1cc(/C=C2/N=C(c3ccc(C(C)(C)C)cc3)OC2=O)cc(Cl)c1OS(C)(=O)=O,5.59%,–,–
COc1ccc(OC)c(NC(=O)CSc2ccc(-c3ccco3)nn2)c1,-12.7%,"16.4 µM [falling, single point]",–
CCOc1ccc(NC(=O)C2CCCN2C(=O)OCc2ccccc2)cc1 (stereo not drawn),38.2%,–,–
CC(C)(Oc1ccc(Br)cc1)C(=O)N1CCc2ccccc21,-21.4%,"0.366 µM [rising, partial curve]",–
O=C(Nc1ncn[nH]1)c1cccc(F)c1,19%,–,"0.092 µM [falling, full curve, poor fit]"
CC(/C=C1\N=C(SCc2ccccc2)SC1=O)=C\c1ccccc1,-1.61%,–,–
COc1ccc(O)c(/C=N/NC(=O)c2ccc(CSc3nc(C)cc(C)n3)cc2)c1,-54.3%,"29.1 µM [falling, single point]","29.1 µM [falling, single point]"
CN(C[C@H](Cc1ccccc1)N(C[C@H](Cc1cccc2ccccc12)N(CCc1ccccc1)N=O)N=O)N=O,10.4%,"2.06 µM [rising, full curve, poor fit]",–
COc1cccc(C(=O)OCC(=O)c2c(N)n(C)c(=O)n(C)c2=O)c1,36.2%,–,"20.6 µM [rising, single point]"
Cc1cccc(NC(=O)NNC(=O)c2nn(C)cc2Br)c1,–,"29.1 µM [falling, single point]",–
CC(C)C(C(=O)N1CCN(C(=O)OC(C)(C)C)CC1)n1cc(-c2cn([C@@H](C)C(=O)N3CCN(C(=O)OC(C)(C)C)CC3)nn2)nn1 (stereo partly drawn),15.4%,"14.6 µM [rising, single point]",–
CC(NC(=O)[C@H](C)NC(=O)C1CC(=O)N(c2ccc3c(c2)OCO3)C1)c1ccccc1 (stereo partly drawn),0.824%,–,–
CCCN(CC(=O)Nc1ccccc1C)C(=O)c1ccc(N2CCOCC2)c([N+](=O)[O-])c1,0.851%,"8.2 µM [falling, partial curve]",–
O=C(NC(=S)Nc1ccc(Br)c(Cl)c1)C1CC1,5.67%,"2.06 µM [rising, partial curve, poor fit]","0.00461 µM [rising, full curve, poor fit]"
CCN1CCN(CC(O)COc2ccc3c(c2)CCC3)CC1 (stereo not drawn),28.6%,"4.61 µM [falling, full curve, poor fit]",–

Structure (SMILES),cell number change,AC50 [1],AC50 [2]
O=C(NCC(=O)N1CCCCCCC1)c1ccco1,-0.413%,–,–
CCOC(=O)C1CCN(c2nc3ccccc3nc2C(C#N)C(=O)NCCc2ccccc2)CC1 (stereo not drawn),-22.5%,"3.66 µM [falling, single point]","2.31 µM [falling, single point]"
COc1ccc(-n2ccnc(SCC(=O)NC3CCCCC3)c2=O)cc1,-7.67%,"0.103 µM [rising, full curve, poor fit]",–
CCCN(N=Nc1cccc([N+](=O)[O-])c1)c1cccc([N+](=O)[O-])c1,31.6%,"6.51 µM [rising, single point]","18.4 µM [rising, single point]"
O=C(CCN1C(=O)CSc2ccccc21)Nc1ccc(OC(F)(F)F)cc1,-7.06%,–,"2.31 µM [falling, partial curve]"
COc1ccc(-c2cn(Cc3ccc4ccccc4c3)nn2)cc1,47.2%,"29.1 µM [rising, single point]","8.2 µM [rising, partial curve, poor fit]"
Cn1c2ccccc2n2c(=O)c(=O)n(CC(=O)c3ccc(Cl)cc3)nc12,-42.3%,"29.1 µM [falling, single point]","29.1 µM [falling, single point]"
O=C(CSc1ccc2c(c1)OCCO2)NC(=O)NC1CCCC1,1.7%,–,–
CC(=O)NC(Cc1ccc(F)cc1)C(=O)N1CCN(C(=O)NCc2ccccc2)CC1 (stereo not drawn),-4.02%,"2.59 µM [rising, single point]","3.26 µM [rising, single point]"
CCC(C(=O)O)n1c2ccccc2c2cn[nH]c(=O)c21 (stereo not drawn),-2.13%,"6.51 µM [rising, single point]",–
CCn1cc(C(=O)N2CCCc3ccccc32)c2cc(OC)c(OC)cc2c1=O,41.1%,–,"8.2 µM [rising, partial curve]"
CCC(C)OC(=O)C1=C(C)NC(=O)NC1c1ccc(F)cc1 (stereo not drawn),-31.2%,"6.51 µM [falling, single point]","4.11 µM [falling, single point]"
Cc1cccc(N2CC(C(=O)OCC(=O)c3ccc(OC(=O)c4cccs4)cc3)CC2=O)c1C (stereo not drawn),48.3%,"23.1 µM [falling, partial curve]","29.1 µM [rising, single point]"
COc1cc(O)c(C(CC(=O)N2CCCCC2)c2ccc(N(C)C)cc2)c(OC)c1 (stereo not drawn),26.5%,"0.58 µM [rising, single point]",–
COc1ccc(S(=O)(=O)N(C)C)cc1NC(=O)CSC(C)C(=O)Nc1cc(C)on1 (stereo not drawn),-39.9%,"32.6 µM [falling, partial curve, poor fit]",–
Cc1c(-c2ccc(F)cc2)nc(N)c(C#N)c1-c1ccco1,1.81%,–,–
COc1cccc(NC(=S)Nc2ccc(F)cc2)c1,-7.42%,"23.1 µM [rising, single point]",–
C=CC[n+]1cccc(-c2cc3ccc(C)cc3[nH]2)c1,–,–,"0.58 µM [falling, single point]"

# Limited to AC50 [1] and cell number change, for some of the entries so far:
Structure (SMILES)	AC50 [1]	cell number change
Cc1cccc(N2CC(C(=O)OCC(=O)c3ccc(OC(=O)c4cccs4)cc3)CC2=O)c1C (stereo not drawn)	23.1 µM [falling, partial curve]	48.3%
COc1cc(O)c(C(CC(=O)N2CCCCC2)c2ccc(N(C)C)cc2)c(OC)c1 (stereo not drawn)	0.58 µM [rising, single point]	26.5%
